Assay results published in patent publication US8722690B2, “Mesoionic pesticides” (E I du Pont de Nemours and Company, priority 2009, dated 2014).
Some entries share one result that the patent states for a list of compounds. At least one compound was matched to its structure with a doubt left.

Key:
[1] = system: diamondback moth (Plutella xylostella); test: Test A: control of diamondback moth on radish plant, foliar spray; assay type: in vivo; settings: sprayed at 10 ppm, 6 days, very good to excellent levels of control efficacy
[2] = system: fall armyworm (Spodoptera frugiperda); test: Test B: control of fall armyworm on maize plant, foliar spray; assay type: in vivo; settings: sprayed at 10 ppm, very good to excellent levels of control efficacy

Structure (SMILES) | control efficacy: feeding damage (40% or less feeding damage and/or 100% mortality) [1] | control efficacy: feeding damage (40% or less feeding damage and/or 100% mortality) [2]
Cc1cccn2c(=O)c(-c3cc(Cl)c(F)c(Cl)c3)c([O-])[n+](Cc3cnc(Cl)s3)c12 [Compound 335] | ≤ 40% | ≤ 40%
CCC=Cc1c([O-])[n+](Cc2cnc(Cl)s2)c2c(C)cccn2c1=O [Compound 341] | ≤ 40% | ≤ 40%
COc1ccc(-c2c([O-])[n+](Cc3cnc(Cl)s3)c3c(C)cccn3c2=O)cc1-c1ccc(C(F)(F)F)nc1 [Compound 345] | ≤ 40% | ≤ 40%
Cc1cccn2c(=O)c(-c3cccc(-c4cc(F)cc(Cl)c4)c3)c([O-])[n+](Cc3cnc(Cl)s3)c12 [Compound 347] | ≤ 40% | ≤ 40%
COC(=O)c1cc(Cl)cc(-c2c([O-])[n+](Cc3cnc(Cl)s3)c3c(C)cccn3c2=O)c1 [Compound 351] | ≤ 40% | ≤ 40%
Cc1ccc(-c2c([O-])[n+](Cc3cnc(Cl)s3)c3c(C)cccn3c2=O)cc1Br [Compound 353] | ≤ 40% | ≤ 40%
Cc1ccc(-c2cccc(-c3c([O-])[n+](Cc4cnc(Cl)s4)c4c(C)cccn4c3=O)c2)c(C)c1 [Compound 366] | ≤ 40% | ≤ 40%
COC(=O)c1cc(-c2c([O-])[n+](Cc3cnc(Cl)s3)c3c(C)cccn3c2=O)cc(C(F)(F)F)c1 [Compound 380] | ≤ 40% | ≤ 40%
Cc1cc(-c2ccc(Cl)cc2F)cc(-c2c([O-])[n+](Cc3cnc(Cl)s3)c3c(C)cccn3c2=O)c1 [Compound 381] | ≤ 40% | ≤ 40%
COc1ccc(-c2c([O-])[n+](Cc3cnc(Cl)s3)c3c(C)cccn3c2=O)cc1-c1ccc(Cl)c(F)c1 [Compound 386] | ≤ 40% | ≤ 40%
Cc1cccn2c(=O)c(-c3cc(F)cc(Cl)c3)c([O-])[n+](Cc3cnc(Cl)s3)c12 [Compound 395] | ≤ 40% | ≤ 40%
COc1ccc(-c2c([O-])[n+](Cc3cnc(Cl)s3)c3c(C)cccn3c2=O)cc1-c1cc(OC(F)(F)F)ccc1F [Compound 398] | ≤ 40% | ≤ 40%
Cc1cccn2c(=O)c(-c3ccc(F)c(-c4ccc(Cl)nc4Cl)c3)c([O-])[n+](Cc3cnc(Cl)s3)c12 [Compound 399] | ≤ 40% | ≤ 40%
Cc1cccn2c(=O)c(-c3cc(Cl)cc(-c4ccc(C(F)(F)F)cc4Cl)c3)c([O-])[n+](Cc3cnc(Cl)s3)c12 [Compound 401] | ≤ 40% | ≤ 40%
Cc1cccn2c(=O)c(-c3cc(Cl)cc(-c4ccc(Cl)cc4F)c3)c([O-])[n+](Cc3cnc(Cl)s3)c12 [Compound 402] | ≤ 40% | ≤ 40%
Cc1cccn2c(=O)c(-c3cc(Cl)cc(-c4cc(OC(F)(F)F)ccc4F)c3)c([O-])[n+](Cc3cnc(Cl)s3)c12 [Compound 408] | ≤ 40% | ≤ 40%
Cc1cccn2c(=O)c(-c3ccc(-c4ccc(F)cc4Cl)cc3)c([O-])[n+](Cc3cnc(Cl)s3)c12 [Compound 415] | ≤ 40% | ≤ 40%
COc1ccc(-c2ccc(C(F)(F)F)cc2F)cc1-c1c([O-])[n+](Cc2cnc(Cl)s2)c2c(C)cccn2c1=O [Compound 422] | ≤ 40% | ≤ 40%
COc1cc(-c2c([O-])[n+](Cc3cnc(Cl)s3)c3c(C)cccn3c2=O)cc(C(F)(F)F)c1 [Compound 426] | ≤ 40% | ≤ 40%
Cc1ccc(-c2c([O-])[n+](Cc3cnc(Cl)s3)c3c(C)cccn3c2=O)cc1-c1cc(C(F)(F)F)ccc1Cl [Compound 429] | ≤ 40% | ≤ 40%

Structure (SMILES) | control efficacy: feeding damage (40% or less feeding damage and/or 100% mortality) [1] | control efficacy: feeding damage (40% or less feeding damage and/or 100% mortality) [2]
COc1ccc(-c2c([O-])[n+](Cc3cnc(Cl)s3)c3c(C)cccn3c2=O)cc1-c1cc(C(F)(F)F)ccc1Cl [Compound 431] | ≤ 40% | ≤ 40%
Cc1cccn2c(=O)c(-c3cc(F)cc(-c4ccc(C(F)(F)F)cc4Cl)c3)c([O-])[n+](Cc3cnc(Cl)s3)c12 [Compound 433] | ≤ 40% | ≤ 40%
Cc1cccn2c(=O)c(-c3cccc(-c4ccc(Cl)c(C#N)c4)c3)c([O-])[n+](Cc3cnc(Cl)s3)c12 [Compound 437] | ≤ 40% | ≤ 40%
COc1cccn2c(=O)c(-c3cc(F)cc(Cl)c3)c([O-])[n+](Cc3cnc(Cl)s3)c12 [Compound 442] | ≤ 40% | ≤ 40%
COc1ccc(-c2c([O-])[n+](Cc3cnc(Cl)s3)c3c(C)cccn3c2=O)cc1-c1cc(C(F)(F)F)ccc1F [Compound 448] | ≤ 40% | ≤ 40%
Cc1cccn2c(=O)c(-c3cccc(-c4cc(C(F)(F)F)ccc4F)c3)c([O-])[n+](Cc3cnc(Cl)s3)c12 [Compound 449] | ≤ 40% | ≤ 40%
COc1cc(-c2ccc(C(F)(F)F)cc2Cl)cc(-c2c([O-])[n+](Cc3cnc(Cl)s3)c3c(C)cccn3c2=O)c1 [Compound 451] | ≤ 40% | ≤ 40%
CCON=C(C)c1cccc(-c2c([O-])[n+](Cc3cnc(Cl)s3)c3c(C)cccn3c2=O)c1 [Compound 453] | ≤ 40% | ≤ 40%
Cc1cccn2c(=O)c(-c3cccs3)c([O-])[n+](Cc3cnc(Cl)s3)c12 [Compound 454] | ≤ 40% | ≤ 40%
Cc1cccn2c(=O)c(-c3ccsc3)c([O-])[n+](Cc3cnc(Cl)s3)c12 [Compound 455] | ≤ 40% | ≤ 40%
Cc1cccn2c(=O)c(-c3cc(C#N)cc(-c4ccc(C(F)(F)F)cc4Cl)c3)c([O-])[n+](Cc3cnc(Cl)s3)c12 [Compound 462] | ≤ 40% | ≤ 40%
Cc1cccn2c(=O)c(-c3cc(Br)cs3)c([O-])[n+](Cc3cnc(Cl)s3)c12 [Compound 465] | ≤ 40% | ≤ 40%
Cc1ncc(C[n+]2c([O-])c(-c3cccc(-c4ccc(C(F)(F)F)cc4Cl)c3)c(=O)n3cccc(C)c32)s1 [Compound 479] | ≤ 40% | ≤ 40%
COc1cccn2c(=O)c(-c3cc(Cl)cc(-c4ccc(Cl)cc4F)c3)c([O-])[n+](Cc3cnc(Cl)s3)c12 [Compound 481] | ≤ 40% | ≤ 40%
Cc1ccc(-c2c([O-])[n+](Cc3cnc(Cl)s3)c3c(C)cccn3c2=O)cc1-c1cc(C(F)(F)F)ccc1F [Compound 483] | ≤ 40% | ≤ 40%
Cc1ccc(-c2c([O-])[n+](Cc3cnc(Cl)s3)c3c(C)cccn3c2=O)cc1-c1ccc(C(F)(F)F)cc1C(F)(F)F [Compound 484] | ≤ 40% | ≤ 40%
Cc1cccn2c(=O)c(-c3cc(F)cc(-c4ccc(C(F)(F)F)cc4F)c3)c([O-])[n+](Cc3cnc(Cl)s3)c12 [Compound 485] | ≤ 40% | ≤ 40%
Cc1cccn2c(=O)c(-c3ccc(Br)c(Cl)c3)c([O-])[n+](Cc3cnc(Cl)s3)c12 [Compound 486] | ≤ 40% | ≤ 40%
Cc1cccn2c(=O)c(-c3ccc(Br)c(C(F)(F)F)c3)c([O-])[n+](Cc3cnc(Cl)s3)c12 [Compound 487] | ≤ 40% | ≤ 40%
COc1cc(-c2ccc(C(F)(F)F)cc2F)cc(-c2c([O-])[n+](Cc3cnc(Cl)s3)c3c(C)cccn3c2=O)c1 [Compound 490] | ≤ 40% | ≤ 40%
